Literature values in patent US20230320986A1, “TARGETED ANTHRACYCLINE DELIVERY SYSTEM FOR CANCER TREATMENT” (priority 2020, published 2023).
At least one structure is not confirmed: it was looked up by name or label, or the drawing left a doubt.

Details: cited from earlier work

Which “potency relative to the parent drug (amrubicin)” value does the source give for `CC(O)[C@]1(N)Cc2c(O)c3c(c(O)c2[C@@H](O[C@H]2C[C@H](O)[C@H](O)CO2)C1)C(=O)c1ccccc1C3=O` (stereo partly shown) [Amrubicinol] here?
Its value is 5-50 times.
